Assay results taken from paper PMC8120823.
Protein sequences can lack the tags named with them.

The sequences below were run against T1, 6His-SCO4804 (Streptomyces coelicolor) (UniProt Q9KY60) (assay: EMSA). Conditions: no competitor, bound at 1 uM protein, non-specific; PBS, 5 mg/ml BSA, 5% glycerol, optional 2 ng/ul poly(dI-dC), 30 ng DNA, protein up to 2 uM, 30 min at 25 C; 5% PAGE in 0.25x TBE at 4 C; pH not stated; recombinant protein; residues 1-815; protein details: 6His (pET28a, NdeI/EcoRI, N-terminal His/thrombin); label: none (ethidium bromide stain); probe letters rebuilt from the primers and the ….
T1 sequence (looked up): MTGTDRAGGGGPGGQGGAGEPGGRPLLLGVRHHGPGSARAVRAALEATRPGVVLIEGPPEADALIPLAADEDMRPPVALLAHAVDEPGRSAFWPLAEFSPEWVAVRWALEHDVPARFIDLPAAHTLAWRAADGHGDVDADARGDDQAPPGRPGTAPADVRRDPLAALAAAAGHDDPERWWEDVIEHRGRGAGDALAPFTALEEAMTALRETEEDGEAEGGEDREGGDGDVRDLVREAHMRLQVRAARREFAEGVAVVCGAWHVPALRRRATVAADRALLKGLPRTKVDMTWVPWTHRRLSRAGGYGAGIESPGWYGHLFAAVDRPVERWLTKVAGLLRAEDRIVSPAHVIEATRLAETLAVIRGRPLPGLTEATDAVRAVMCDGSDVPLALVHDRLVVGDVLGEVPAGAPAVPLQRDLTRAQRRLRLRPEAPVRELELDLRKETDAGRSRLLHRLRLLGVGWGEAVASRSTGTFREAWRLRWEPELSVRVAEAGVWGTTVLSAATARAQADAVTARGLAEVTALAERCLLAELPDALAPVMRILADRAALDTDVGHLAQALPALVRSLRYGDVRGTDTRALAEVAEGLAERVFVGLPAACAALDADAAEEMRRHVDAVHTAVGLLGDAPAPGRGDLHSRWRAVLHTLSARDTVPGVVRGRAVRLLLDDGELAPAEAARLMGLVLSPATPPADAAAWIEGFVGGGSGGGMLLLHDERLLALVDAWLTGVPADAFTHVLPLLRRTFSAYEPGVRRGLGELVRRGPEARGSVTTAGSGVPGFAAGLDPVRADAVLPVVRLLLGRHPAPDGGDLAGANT
“GCGGATCCGATCTTCGCGGGAGTGGTGTTCGCCCTGTTCGGGGCCGGTCTGCTGGTGTGGACCACGACGCGGGTGCGGCACGGCCGGCCCGTCGCGCTCGGTGTGAGCCCCGTCGCATCGGCGACCGTCGCGAGCGTCGCCGCCGTGGTCGCGCTGGGCCTCGGGGCCTGGTGCCTGACCCAGGTGTGAGGAGCGGTTGCGCACCCCGGCCGGGGCGCCGCCCGAGTAACCGGGGGATCGCACTCCGGATACCCGTGTCGGAGCGGGTCAGCACTCCGGGCGGCAGGAACGGGGTTCGTCGGGTTACCGTTCGAGTGGCCGTTGCGGGCTTTTCCCGTTTGACACGGGGGCGGGAGGTACCGTCACACTCCGCAGCGTCACGATCGAAACACAGAACGACCCGACCCCGGGACCACGGCCTGGGGAGGCCCAGCGTCGACCGGAGAGAAGAGCGCATATGCG (double strand) [topA promoter fragment]”: binds.
“GGCATATGCGATACCCCCGTCGGCTCACACCTCGTATCAGCAACACCCGTACGCGTACGTGAACTTACAAGGCGCGGTCGCCCGGCGAAAGACGGCTCCGACGCGCGGGGTGATCGTGTGGAGAACGGGGATTCAGCGTCTGCGCACCGCCTTCCAGGCGTCGGTCACCGCGTAGGAGAAGGTCAGCCGCCAGGCGTCCAGTTTGTTCCGCACCGTTGAGACCACTCTCCAGCACTTCAGCCACGTCGGCAGGCGTCGGAACGGTACGAAGGTGAGGGTGTCGCCGATGGCGTTCACCGCGATGCTCCTGCGGCCCGGTCCCTCTGCCCGCAGTGCGGCGTATAGTTCCGGCGTCAATGCGCGGTTGAGGCGGGCCGCGGTGCCTGCCGCGGTGAAGGCGAATCCTCGGATCCGG (double strand)”: binds.
“GTAATGCCGGCGTAGGGAGTAGGTCTCATGACCATCAAGGACGCACGCACGCCTGCCTCCACGCAGAACACCGCCCAGGCGGACACCGCGGAGAACACGGACACCGCGGAGGACACCGAGGCCGGGAAGTCCATCGGCTGGCACAAGGCGTACGTCGAGGGCTCGCGCCCCGATCTGCGGGTGCCGGTCCGTCAGGTGCACCTCACCAACGGGCAGTCGGTCACGCTCTACGACACCTCGGGCCCGTACACCGATCCGCTCGTCGACACCGATGTCCGCAGGGGCCTCGCACCGCTGCGGGAGAACTGGATCATCGCCCGCGGAGACACCGAGGAGTACGCGGGCCGCCCCGTCCGGCCCGAGGACGACGGAATCAAGCACACCTCGCCGCGCGGCGGCCTGCGCAACCTCGACGCCGTCTTCCCCGGCCGCCCGCGCCAGCCTCGCCGGGGCCGGGACGGCAACGCGGTCACGCAGCTCGCCTACGCGCGACGGGGCGAGATCACCCCGGAGATGGAGTACGTGGCCGTCCGGGAGAACGTCTCCCCGGAGGTGGTCCGCGAGGAGATCGCCGCGGGACGTGCCGTGCTGCCCGCCAACATCAACCACCCCGAGATCGAGCCGATGATCATCGGCAAGCGGTTCCTGGTGAAG (double strand) [negative control 2, sco3928 fragment]”: binds.
